Results on one molecule are retold here after paper doi:10.1101/2022.03.13.484121.

The target of this assay is native source meprin α from mouse urine (mouse (endogenous in urine)) (UniProt P28825). In words: SEC.

No constants are given. Whether binding was seen depends on the method and setting. Some binding calls cover weakened binding; strength is not graded here.

B1: native source meprin α from mouse urine (enzyme, UniProt P28825 65-713)
chain: NAMRDPSSRWKLPIPYILADNLELNAKGAILHAFEMFRLKSCVDFKPYEGESSYIIFQKLSGCWSMIGDQQVGQNISIGEGCDFKATIEHEILHALGFFHEQSRTDRDDYVNIWWDQIITDYEHNFNTYDDNTITDLNTPYDYESLMHYGPFSFNKNESIPTITTKIPEFNTIIGQLPDFSAIDLIRLNRMYNCTATHTLLDHCDFEKTNVCGMIQGTRDDADWAHGDSSQPEQVDHTLVGQCKGAGYFMFFNTSLGARGEAALLESRILYPKRKQQCLQFFYKMTGSPADRFEVWVRRDDNAGKVRQLAKIQTFQGDSDHNWKIAHVTLNEEKKFRYVFLGTKGDPGNSSGGIYLDDITLTETPCPAGVWTIRNISQILENTVKGDKLVSPRFYNSEGYGVGVTLYPNGRITSNSGFLGLTFHLYSGDNDAILEWPVENRQAIMTILDQEADTRNRMSLTLMFTTSKNQTSSAINGSVIWDRPSKVGVYDKDCDCFRSLDWGWGQAISHQLLKRRNFLKGDSLIIFVDFKDLTHLNRTEVPASARSTMPRGLLLQGQESPALGESSRKAMLEESLPSSLGQRHPSRQKRSVENTGPMEDHNWPQYFRDPCDPNPCQNEGTCVNVKGMASCRCVSGHAFFYAGERCQAM
Regarding B1, the binding entry is reported as “binds”.
